PubChem BioAssay AID1671190 (National Center for Advancing Translational Sciences (NCATS), 2021)
Where “and” joins values, the source holds several entries; their conditions need not be identical. Identical values can stand only once. The campaign covered roughly 580,000 compounds. About 6,100 (1.1%) were called active. The shares of active, inactive and inconclusive entries below differ from those in the screen. The call rests on the fitted dose curve; in most records, active means well fitted inhibition curve with a large enough effect; inconclusive means small, poorly fitted or top-dose-only effect, or another doubt; inactive means no such curve, though single readings can be large or run the other way. A potency beside an inconclusive call is a rough fit, not a confirmed value.

Amino acid sequences for entries named in this document (tags omitted).
UniProt P18054, whole entry, looked up: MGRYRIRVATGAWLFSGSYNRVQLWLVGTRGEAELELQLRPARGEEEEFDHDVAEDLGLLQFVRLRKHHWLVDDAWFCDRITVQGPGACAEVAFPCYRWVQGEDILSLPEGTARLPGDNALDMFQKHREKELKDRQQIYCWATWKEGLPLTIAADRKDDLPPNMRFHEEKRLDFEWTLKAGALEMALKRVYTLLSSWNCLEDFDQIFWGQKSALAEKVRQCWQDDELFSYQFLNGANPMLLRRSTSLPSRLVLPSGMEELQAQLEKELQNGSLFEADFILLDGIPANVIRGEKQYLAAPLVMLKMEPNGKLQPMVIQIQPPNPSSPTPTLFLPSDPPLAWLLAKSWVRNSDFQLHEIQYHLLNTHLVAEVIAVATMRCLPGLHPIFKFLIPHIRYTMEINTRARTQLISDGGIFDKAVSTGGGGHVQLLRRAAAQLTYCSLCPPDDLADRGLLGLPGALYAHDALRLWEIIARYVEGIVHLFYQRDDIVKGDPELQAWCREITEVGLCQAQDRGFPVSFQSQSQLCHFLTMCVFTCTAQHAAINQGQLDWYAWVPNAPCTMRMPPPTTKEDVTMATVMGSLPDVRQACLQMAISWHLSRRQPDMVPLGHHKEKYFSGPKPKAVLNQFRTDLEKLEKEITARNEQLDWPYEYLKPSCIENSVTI

Each compound was assayed against Polyunsaturated fatty acid lipoxygenase ALOX12 (Homo sapiens) (UniProt P18054) (assay: Primary qHTS assay for inhibitors of human arachidonate 12S-lipoxygenase (ALOX12): Round 2). Details: purified 12hLO, xylenol orange hydroperoxide absorbance; activity change, negative = inhibition: at 108 µM (top of the series).
Procedure, shortened: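 Purified human 12hLO (150 nM final) in 25 mM Hepes, 0.01% Triton X-100, pH 7.0 was preincubated 15 min at room temperature with compound. Then 40 uM arachidonic acid was added, 30 min. Hydroperoxide was read by Fe-XO absorbance ratio 573/405 nm.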
On the % scale 0 is the no-effect control and ±100 the full control effect; potency means the concentration at half of the fitted maximal effect.

| SMILES | Potency | activity change, negative = inhibition |
| --- | --- | --- |
| COC(=O)[C@@H]1[C@@H](CO)[C@@H]2Cn3c(ccc(Br)c3=O)[C@H]1N2C(=O)Cc1ccccn1 | inconclusive: 44.7 µM [inhibitor, partial curve, poor fit] |  |
| COc1ccc(-c2cc([C@H]3CN4CC[C@H]3C[C@@H]4CNC(=O)c3ccc(N(C)C)cc3)n(C)n2)cc1 | inactive |  |
| COc1nc2ccccc2c(=O)n1-c1ccc(Cl)cc1 | inactive |  |
| O=C(CCCCl)c1ccc(F)cc1 | inconclusive: 18.1 µM [inhibitor, single point] |  |
| Cc1ncc2c(n1)C[C@@H]1CC[C@H]2N1C(=O)Nc1ccccc1F | inconclusive: 28.2 µM [inhibitor, partial curve] |  |
| COc1ccc(C(=O)C2CCCN(CC3CCCCC3)C2)cc1OC (stereo not drawn) | inconclusive: 35.5 µM [inhibitor, single point] |  |
| CCCC(=O)c1c(O)[nH]c(=O)[nH]c1=O | inconclusive: 6.31 µM [inhibitor, full curve, poor fit] |  |
| O=C(NC1CCCCC1)N1Cc2cc(N3CCCCC3)ccc2-n2nncc2C1 | inconclusive: 8.91 µM [inhibitor, partial curve, poor fit] |  |
| Cc1ccc(CNCCc2ccccc2F)cc1 | inconclusive: 39.8 µM [inhibitor, partial curve, poor fit] |  |
| O=C1NC(=O)C(C/C=C/c2ccccc2)C(=O)N1 | inconclusive: 44.7 µM [inhibitor, single point] |  |
| O=C(NC1CCCCC1)[C@H]1CN2CCC1C[C@@H]2Cn1cc(COc2ccccc2)nn1 (stereo partly drawn) | inconclusive: 6.31 µM [inhibitor, full curve, poor fit] |  |
| CN(C)C1CNC1 | inconclusive: 13.3 µM [inhibitor, single point] |  |
| Cc1ccccc1-n1nc(C)c2c1NC(=O)CSC2c1ccc(Cl)cc1 (stereo not drawn) | inconclusive: 56.2 µM [inhibitor, partial curve, poor fit] |  |
| COc1ccc(/C=C/C=C2C(=O)NC(=S)NC2=O)cc1 | active: 35.5 µM |  |
| OCC1CN(C2CCC2)CC12CCNCC2 (stereo not drawn) | inactive |  |
| COc1ccccc1N1CCN(Cc2ccccc2F)CC1 | inactive |  |
| N#CC(C#N)=Cc1cccnc1 | inactive |  |
| COc1cccc(CN2CCN(C(=O)Cc3ccccc3OC)CC2)c1 | inconclusive: 1.12 µM [inhibitor, partial curve, poor fit] |  |
| c1ccc(C2(NC3=NCCO3)CCCCC2)cc1 | inactive |  |
| CC(C)(c1ccc(OCC2CO2)cc1)c1ccc(OCC2CO2)cc1 (stereo not drawn) | inconclusive: 89.1 µM [inhibitor, partial curve, poor fit] |  |
| CC(C)N1CC2CCC(C1)N2S(C)(=O)=O |  | inactive: 5.86% [at 12.5 µM] |
| O=C1NCN(c2ccccc2)C12CCN(C(CCc1ccccc1)c1nnnn1-c1ccc3c(c1)OCCO3)CC2 (stereo not drawn) | inconclusive: 126 µM [inhibitor, single point] |  |
| CCNC(=O)NC(=O)C(C)N1CCN(C(=O)Cc2c[nH]c3ccccc23)CC1 (stereo not drawn) | inconclusive: 50.1 µM [inhibitor, single point] |  |

| SMILES | Potency | activity change, negative = inhibition |
| --- | --- | --- |
| NC[C@@H](CC(=O)O)c1ccc(Cl)cc1 | inactive |  |
| Fc1ccc(Cn2nnnc2CN2CCC(n3nnc4cc(C(F)(F)F)ccc43)CC2)cc1 | inactive |  |
| Cc1ccccc1-n1c(C)nc2ccsc2c1=O | inconclusive: 31.6 µM [inhibitor, partial curve, poor fit] |  |
| COc1ccc(-c2cc([C@H]3CN4CC[C@H]3C[C@@H]4CNC(=O)C3CCCCC3)n(C)n2)cc1OC | inactive |  |
| COC(=O)N(c1ccc(OC)cc1)P1(=S)OCCC(C)O1 (stereo not drawn) | inconclusive: 44.7 µM [inhibitor, partial curve, poor fit] |  |
| O=C(c1cccc(Cl)c1)C1CCCN(Cc2cccc3cnccc23)C1 (stereo not drawn) | inactive |  |
| COc1ccc(CCNCc2cccn2C)cc1 | inconclusive: 2.82 µM [inhibitor, full curve, poor fit] |  |
| COc1cc(C)c(CNCCc2c[nH]c3ccccc23)cc1C | inconclusive: 0.794 µM [inhibitor, partial curve, poor fit] |  |
| Clc1ccc(OCC#CCN2CCCC2)cc1 | inconclusive: 0.631 µM [inhibitor, full curve, poor fit] |  |
| CC(C)CN1CC[C@@]2(CCCN(C(=O)Oc3ccccc3)C2)C1 | inactive |  |
| NNC(N)=O | inconclusive: 15.8 µM [inhibitor, full curve] |  |
| O=C(CC(O)C(Cl)(Cl)Cl)c1ccccc1 (stereo not drawn) | inactive |  |
| O=C(c1ccn[nH]1)N1[C@H]2CC[C@@H]1c1cnc(-c3ccccc3)nc1C2 | inactive |  |
| CN1CCN(Cc2cn(C)c3ccccc23)CC1CCO (stereo not drawn) | inconclusive: 50.1 µM [inhibitor, single point] |  |
| Cn1nc(-c2ccc3ccccc3c2)cc1[C@H]1CN2CC[C@H]1C[C@@H]2CNC(=O)NCc1ccccc1 | inconclusive: 89.1 µM [inhibitor, partial curve, poor fit] |  |
| O=C1NC(=O)C(=Cc2coc3ccccc3c2=O)C(=O)N1 | inconclusive: 39.8 µM [inhibitor, partial curve] |  |
| CC(C)C12CN3CCN(CC(C3)C1=O)C2 | inactive |  |
| CCc1ccc(N2C(=O)NC(=O)/C(=C/c3cccn3CCOc3ccc(C)cc3)C2=O)cc1 | inconclusive: 70.8 µM [inhibitor, partial curve, poor fit] |  |
| COCCNC(=O)[C@H]1CN2CCC1C[C@@H]2Cn1cc(CCO)nn1 (stereo partly drawn) | inactive |  |
| CC(C(=O)c1ccc2ccccc2c1)N1CCCCC1 (stereo not drawn) | inconclusive: 141 µM [inhibitor, partial curve, poor fit] |  |
| COc1ccc(OCC(=O)N2CCN(CCc3ccncc3)CC2)cc1 | inconclusive: 50.1 µM [inhibitor, partial curve, poor fit] |  |
| Cc1cc(C=C2C(=O)N(C)C(=S)N(C)C2=O)c(C)n1C1CCCCC1 | inconclusive: 70.8 µM [inhibitor, partial curve, poor fit] |  |
| O=C1c2cccc(N3CCNCC3)c2C2CCCCN12 (stereo not drawn) | inconclusive: 100 µM [inhibitor, single point] |  |

| SMILES | Potency | activity change, negative = inhibition |
| --- | --- | --- |
| CC(C)N1CCC(NC(=O)c2cn(Cc3ccccc3)c3ccccc23)CC1 | inactive |  |
| CC(C)[C@@]1(NC(=O)[C@H]2CC3c4cccc5[nH]cc(c45)C[C@H]3N(C)C2)O[C@@]2(O)C3CCCN3C(=O)[C@@H](Cc3ccccc3)N2C1=O (stereo partly drawn) | inconclusive: 89.1 µM [inhibitor, partial curve, poor fit] |  |
| CCCNC(=O)OC[C@H]1C[C@@H]2CCN1C[C@@H]2c1cc(-c2ccc(OC)cc2)nn1C | inconclusive: 31.6 µM [inhibitor, full curve] |  |
| Fc1ccc(C(OCCN2CCN(CCCc3ccccc3)CC2)c2ccc(F)cc2)cc1 | active: 2.73 µM and inconclusive: 22.4 µM [inhibitor, single point] and inconclusive: 44.7 µM [inhibitor, partial curve, poor fit] |  |
| CC(=O)Nc1ccccc1C(=O)OCC(=O)Nc1ncccn1 | inconclusive: 20 µM [inhibitor, partial curve, poor fit] |  |
| CCOC(=O)C1=C(C)OC(N)=C(C(=O)OC(C)C)C12C(=O)Nc1ccc(Br)cc12 (stereo not drawn) | inconclusive: 112 µM [inhibitor, single point] |  |
| O=C(NC1(C(F)(F)F)Oc2ccc(Cl)cc2O1)N1CCC2(CC1)OCCO2 (stereo not drawn) | inconclusive: 10 µM [inhibitor, full curve, poor fit] |  |
| Clc1ccc(OCC#CCN2CCCCCC2)cc1 | inconclusive: 2.24 µM [inhibitor, full curve, poor fit] |  |
| COc1ccc(Cc2c(O)[nH]c(=S)[nH]c2=O)cc1 | active: 28.2 µM |  |
| O=C(Cc1ccccc1)N1CCN(Cc2cccc(Cl)c2)CC1 | inconclusive: 0.562 µM [inhibitor, full curve, poor fit] |  |
| Clc1ccc(-c2ccc(CNC3CN4CCC3CC4)o2)c(Cl)c1 (stereo not drawn) | inconclusive: 39.8 µM [inhibitor, partial curve, poor fit] |  |
| Clc1cc(CNC2CN3CCC2CC3)cc(Cl)c1OCc1ccccc1 (stereo not drawn) | inconclusive: 44.7 µM [inhibitor, partial curve, poor fit] |  |
| COC(=O)C1=C(c2ccc3ccccc3c2)C[C@@H]2CC[C@H]1N2C(=O)N1CCCCC1 | inactive |  |
| C=C1[C@@H](C)[C@H]2[C@H](Cc3ccccc3)NC(=O)[C@]23[C@H](OC(C)=O)/C=C/[C@](C)(O)C(=O)[C@@H](C)C/C=C/[C@H]3[C@@H]1O | inactive |  |
| CC(Cc1ccsc1)NCc1cn[nH]c1-c1ccc(F)cc1F (stereo not drawn) | inactive |  |
| Cc1[nH]c2ccccc2c1C=C(C#N)C#N | inconclusive: 89.1 µM [inhibitor, single point] |  |
| CCOCN(C(=O)CCl)c1c(C)cccc1CC | inconclusive: 3.55 µM [inhibitor, full curve, poor fit] |  |
| COc1cccc(-c2nc(CS(=O)CC(=O)N3CCC4(CC3)OCCO4)c(C)o2)c1 (stereo not drawn) | inactive |  |
| Cn1nccc1C(=O)N1[C@H]2CC[C@@H]1c1cnc(-c3ccccc3)nc1C2 | inactive |  |
| CS(=O)(=O)NNP(=O)(NNS(C)(=O)=O)NC(=O)c1ccccc1 | inconclusive: 112 µM [inhibitor, single point] |  |
| CCOC(=O)c1c(NS(=O)(=O)c2ccccc2)n(CCCOC)c2nc3ccccc3nc12 | inconclusive: 44.7 µM [inhibitor, partial curve, poor fit] |  |
| CN1CCN(Cc2cc3c(cc2[N+](=O)[O-])OCO3)CC1 | inactive |  |
